The list shows a part of the results. The main result of the screen is listed elsewhere. These columns were measured beside it and carry no call. Most of these compounds were active or inconclusive in the main read-out, so they are no random draw. The note in brackets gives the kind of curve behind each potency; many fits are weak.

This assay can be described thus: qHTS Assay to Find Inhibitors of Chronic Active B-Cell Receptor Signaling. Conditions: ABC-DLBCL IkBa-CBG/CBR reporter, luminescence ratio (green luciferase fused to IkBa over red control in TMD8 lymphoma cells), 4 h. Summed up: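 Compounds up to 46 uM were incubated four hours with TMD8 cells whose green CBG68 luciferase is fused to IkappaBalpha; red CBR luminescence normalised the signal, and concentration-effect curves were fitted to fusion, red and ratio data.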

The mark [1] stands for this setting: measured here: CBR red luminescence, cell number.
The mark [2] stands for this setting: measured here: IkBa-CBG green luminescence.

As to `COc1ccccc1-c1cc2nc(C)c(CCC(=O)NCc3ccco3)c(C)n2n1`, the AC50 under setting [1] was 10.3 µM [falling, partial curve, poor fit].
For `COc1ccc(-c2cc3ccccc3s2)cc1[C@H]1[C@H]2C=CC[C@@H](C)[C@@H]2C(=O)N1Cc1ccccc1`, the AC50 under setting [1] was 7.94 µM [falling, partial curve, poor fit].
The same measure, in the same setting: the figure for `Cc1ccc(C(=O)N/N=C/c2cn(Cc3ccccc3)c3ccccc23)cn1` is 4.47 µM [falling, partial curve, poor fit].
Take `Cc1cc2c(C)nc(N/N=C/c3ccc([N+](=O)[O-])cc3)nc2o1`: the AC50 under setting [1] is 0.651 µM [rising, full curve].
Take `O=C1C2C(C(=O)N1/N=C/c1ccc([N+](=O)[O-])o1)C1C=CC2C12CC2` (configuration not stated): the AC50 runs as follows: under setting [1], 18.4 µM [falling, single point]; under setting [2], 18.4 µM [falling, partial curve, poor fit].
With `Cc1cnc(NC(=O)Nc2ccc(Cl)cc2)s1`, under setting [1], the AC50 was 0.1 µM [rising, full curve, poor fit].
Still for that read-out and setting: next, `COc1cccc(CNC(=O)c2ccc(NC(=O)C3=CSCCO3)cc2)c1`: 11.2 µM [rising, partial curve].
Turning to `COc1ccc(/C=C2/SC(=O)N(CCC(=O)Nc3ccc(S(=O)(=O)Nc4nccs4)cc3)C2=O)cc1`, the AC50 under setting [1] was 11.6 µM [falling, partial curve].
Turning to `Cn1cc(Cl)c(C(=O)NC(=S)Nc2sc3c(c2C#N)CCCCC3)n1`, under setting [1], the AC50 is 11.6 µM [rising, partial curve].
On the same count and under the same terms, the figure for `Cc1ccc(C(=O)OCC(=O)NCCc2ccccc2)cc1C` is 20.6 µM [rising, single point]; for `COC(=O)C1(C(F)(F)F)N=C(C(F)(F)F)Nc2ccc(Cl)cc21` (configuration not stated) it is 13 µM [rising, partial curve, poor fit].
Same read-out and setting: the figure for `Cc1c(OCC(=O)OC(C)C)ccc2c3c(c(=O)oc12)CCC3` is 11.6 µM [rising, partial curve, poor fit]; for `Cc1cc(C)c(C#N)c(SCSCc2ccccc2)n1` it is 29.1 µM [rising, single point].
With `Cc1cc(-c2ccc(C)c(S(=O)(=O)NCCCN3CCN(c4ccccc4F)CC3)c2)on1`, under setting [1], the AC50 is 28.2 µM [falling, single point].
Consider `C=CCSc1nnc(-c2cccnc2)o1`, for which the AC50 under setting [1] is 23.1 µM [rising, partial curve, poor fit].
For `O=C(COC(=O)Cn1cc(C(F)(F)F)ccc1=O)NCc1ccccc1`, the AC50 under setting [1] is 11.6 µM [rising, partial curve, poor fit].
As for `O=[N+]([O-])c1ccc2cn(-c3ccccc3)nc2c1`, the AC50 under setting [1] is 1.46 µM [rising, partial curve, poor fit].
Regarding `Cc1ccc([N+](=O)[O-])cc1Nc1nc(N2CCCC2)nc(N2CCCC2)n1`, the concentration at half-maximal activity (AC50) under setting [1] is 35.5 µM [rising, partial curve, poor fit].
As for `O=C(CSc1ncnc2ccccc12)c1cccs1`, the AC50 is 7.08 µM [falling, partial curve] under setting [1] and 12.6 µM [rising, partial curve, poor fit] under setting [2].
On to `CN(CC(=O)Nc1ccc2c(c1)OCCO2)S(=O)(=O)c1ccc(Br)s1`, for which the AC50 under setting [1] is 2.06 µM [falling, partial curve, poor fit].
With `O=C(Nc1ccc(Cl)cc1Cl)c1cc(S(=O)(=O)NCc2ccc3c(c2)OCO3)ccc1F`, under setting [1], the AC50 was 28.2 µM [rising, single point].
On to `CCCCNC(=O)c1c(N)n(/N=C/c2ccccn2)c2nc3ccccc3nc12`, for which the AC50 under setting [1] is 2.24 µM [falling, full curve].
The same measure, in the same setting: the figure for `COc1cc(/C=N/NC(=O)Cc2ccccc2)cc(OC)c1OC` is 28.2 µM [rising, single point]; for `O=C(O)c1ccc(/C=N/Nc2nc3ccccc3[nH]2)cc1` it is 1.26 µM [falling, full curve, poor fit].
As to `Cc1ccc(/C=C/C(=O)c2ccccc(=O)c2O)cc1C`, the AC50 under setting [1] is 29.1 µM [falling, single point].
For the molecule `COc1ccc(CC(=O)Nc2nnc(C(C)C)s2)cc1`, the AC50 under setting [1] was 11.2 µM [rising, partial curve, poor fit].
As to `Cc1cc(Cl)ccc1NC(=O)CN1CCN(C(=O)c2ccco2)CC1`, the AC50 under setting [1] is 5.01 µM [rising, full curve, poor fit].
Take `Cc1cccc(NC(=O)c2cccc(S(=O)(=O)N3CCc4ccccc4C3)c2)n1`: the AC50 under setting [1] was 6.51 µM [rising, single point].
For `CCOC(=O)Cc1csc(NC(=O)c2csc(C)c2)n1`, the AC50 under setting [1] was 29.1 µM [falling, single point].
For the molecule `O=C(Cc1ccc(F)cc1)c1ccc(O)cc1O`, the AC50 under setting [1] was 29.1 µM [rising, single point].
The same measure, in the same setting: next, `Cc1ccc(-n2c(C)cc(=O)cc2C)c(C)c1`: 2.31 µM [rising, full curve, poor fit].
As for `COc1cccc(C=Nc2cccc3c(=O)[nH][nH]c(=O)c23)c1O`, the AC50 under setting [1] was 14.1 µM [falling, partial curve, poor fit].
Same read-out and setting: next, `Cc1ccccc1C(=O)NNC(=O)c1ccc(F)cc1`: 15.8 µM [falling, single point]; `CCOc1ccc(NC(=O)c2cccc(-n3cccc3)c2)cc1S(=O)(=O)N1CCOCC1`: 14.6 µM [rising, partial curve]; `COc1cc(NC(=S)NCCC(c2ccccc2)c2ccccc2)c(OC)cc1Cl`: 23.1 µM [falling, partial curve, poor fit].
On the same count and under the same terms, next, `Cc1sc2nc(C(C)C)nc(SCC(=O)N3c4ccccc4CC3C)c2c1C` (configuration not stated): 3.66 µM [rising, full curve].
Regarding `Cc1nn(Cc2ccccc2)c2c1C(c1ccncc1)C(C#N)=C(N)O2` (configuration not stated), under setting [1], the AC50 is 31.6 µM [falling, partial curve, poor fit].
Same read-out and setting: the figure for `ON=C1c2ccccc2-c2ccccc21` is 12.6 µM [falling, partial curve, poor fit]; for `Cc1ccc(S(=O)(=O)NCCC(=O)NNC(=O)c2ccccc2Cl)cc1C` it is 14.6 µM [falling, partial curve, poor fit].
For the molecule `Cc1ccc(S(=O)(=O)Nc2c(NC3CCCCC3)c3ccccc3oc2=O)cc1`, the AC50 under setting [1] is 20 µM [falling, single point].

Broadly, the AC50 is the midpoint of the concentration-response curve, whichever way the signal moves.

The values are drawn from PubChem BioAssay AID493014 (National Center for Advancing Translational Sciences (NCATS), 2011).
